Reference: patent US9556226B2, “Peptides with antifungal activity and methods of using the peptides” (THE BOARD OF TRUSTEES OF THE UNIVERSITY OF ARKANSAS, priority 2013, dated 2017)
Some entries share one result that the patent states for a list of compounds. At least one peptide structure holds a part that was inferred or is arguable (an end, a ring closure or a residue). Peptide text beside a SMILES is read from it.

What follows are compounds tested on sheep red blood cells (assay: Red blood cell hemolysis assay). Settings: 1 hour at 37° C., peptide concentrations up to 100 μM.
Assay type: cell-based
With `CC(=O)N[C@@H](CSSC[C@H](NC(C)=O)C(=O)N[C@@H](Cc1ccccc1)C(=O)N[C@@H](CCCCN)C(=O)N[C@@H](CCCNC(=N)N)C(=O)N[C@@H](CCCCN)C(=O)N[C@@H](Cc1ccc(O)cc1)C(N)=O)C(=O)N[C@@H](Cc1ccccc1)C(=O)N[C@@H](CCCCN)C(=O)N[C@@H](CCCNC(=N)N)C(=O)N[C@@H](CCCCN)C(=O)N[C@@H](Cc1ccc(O)cc1)C(N)=O` [KM12, Y-K-R-K-F-C-----C-F-K-R-K-Y] the hemolysis activity was ≤ 3%.
In the case of `CC(=O)N[C@@H](CSSC[C@H](NC(C)=O)C(=O)N[C@@H](Cc1c[nH]c2ccccc12)C(=O)N[C@@H](CCCCN)C(=O)N[C@@H](CCCNC(=N)N)C(=O)N[C@@H](CCCCN)C(=O)N[C@@H](Cc1c[nH]c2ccccc12)C(N)=O)C(=O)N[C@@H](Cc1c[nH]c2ccccc12)C(=O)N[C@@H](CCCCN)C(=O)N[C@@H](CCCNC(=N)N)C(=O)N[C@@H](CCCCN)C(=O)N[C@@H](Cc1c[nH]c2ccccc12)C(N)=O` [KM14, W-K-R-K-W-C-----C-W-K-R-K-W], the hemolysis activity was ≤ 3%.
For `CC(=O)N[C@@H](Cc1ccc(O)cc1)C(=O)N[C@@H](CCCCN)C(=O)N[C@@H](CCCNC(=N)N)C(=O)N[C@@H](CCCCN)C(=O)N[C@@H](Cc1ccccc1)C(=O)N[C@@H](Cc1ccccc1)C(=O)N[C@@H](CCCCN)C(=O)N[C@@H](CCCNC(=N)N)C(=O)N[C@@H](CCCCN)C(=O)N[C@@H](Cc1ccc(O)cc1)C(N)=O` [KM23, Y-K-R-K-F-F-K-R-K-Y] (Ac-YKRKFFKRKY-NH2), the hemolysis activity was ≤ 3%.
With `CC(=O)N[C@@H](Cc1ccc(O)cc1)C(=O)N[C@@H](CCCCN)C(=O)N[C@@H](CCCNC(=N)N)C(=O)N[C@@H](CCCCN)C(=O)N[C@@H](Cc1ccccc1)C(N)=O` [retro KM5] (Ac-YKRKF-NH2; N-terminus and C-terminus assumed) the hemolysis activity was ≤ 3%.
